Measured values: PubChem BioAssay AID602266 (Broad Institute, 2012)
Inconclusive results, whose numbers are uncertain, are shown with a selection of clear calls. Calls of active or inactive are those of the source.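 Rule for the calls: active = compounds whose fitted half-maximal inhibition dose is at most double their top valid tested dose; inconclusive = flat curve with 30 to 70% inhibition, or poor fit; inactive = the rest.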

Assay: reduction of heat-induced Hsp90aa mRNA, dose response, orthogonal assay for HSF1 inhibitor project, NIH-3T3 cells, RT-qPCR, cherry-pick (AID 602266)
Details: NIH-3T3 HGL cells, heat shock; at 26 µM (top of the series)
In short: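 material = NIH-3T3-derived HGL heat shock reporter cells | reagent = 42 °C heat shock, 90 min | incubation = 90 min compound pretreatment, then heat shock and 1 h recovery | signal = Two-step multiplex TaqMan RT-qPCR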

| Compound | activity change, negative = inhibition |
| --- | --- |
| Cc1nn(-c2cccc(C(F)(F)F)c2)c(Cl)c1/C=N/Nc1cccc(C(=O)O)c1 | inconclusive: 42.9% |
| Cc1ccc(/C=N/Nc2ccc(C(=O)O)cc2)s1 | inactive: 32.5% |
| COc1cc([C@@H]2c3cc4c(cc3[C@H](O)[C@H]3COC(=O)[C@H]23)OCO4)cc(OC)c1OC | inconclusive: -47.2% |
| Cc1ccc(C(=O)Nc2sc(C)c(-c3ccccc3)c2C(N)=O)cc1[N+](=O)[O-] | inconclusive: 40.3% |
